From publication doi:10.1101/2022.01.21.475743 come the findings set out here.

Sequences of proteins named here, by UniProt entry; tags and fusion partners are left off.
UniProt Q13541: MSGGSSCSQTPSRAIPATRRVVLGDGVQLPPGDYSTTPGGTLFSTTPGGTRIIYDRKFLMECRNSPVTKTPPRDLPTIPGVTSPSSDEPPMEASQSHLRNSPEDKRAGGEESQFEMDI
UniProt P42338: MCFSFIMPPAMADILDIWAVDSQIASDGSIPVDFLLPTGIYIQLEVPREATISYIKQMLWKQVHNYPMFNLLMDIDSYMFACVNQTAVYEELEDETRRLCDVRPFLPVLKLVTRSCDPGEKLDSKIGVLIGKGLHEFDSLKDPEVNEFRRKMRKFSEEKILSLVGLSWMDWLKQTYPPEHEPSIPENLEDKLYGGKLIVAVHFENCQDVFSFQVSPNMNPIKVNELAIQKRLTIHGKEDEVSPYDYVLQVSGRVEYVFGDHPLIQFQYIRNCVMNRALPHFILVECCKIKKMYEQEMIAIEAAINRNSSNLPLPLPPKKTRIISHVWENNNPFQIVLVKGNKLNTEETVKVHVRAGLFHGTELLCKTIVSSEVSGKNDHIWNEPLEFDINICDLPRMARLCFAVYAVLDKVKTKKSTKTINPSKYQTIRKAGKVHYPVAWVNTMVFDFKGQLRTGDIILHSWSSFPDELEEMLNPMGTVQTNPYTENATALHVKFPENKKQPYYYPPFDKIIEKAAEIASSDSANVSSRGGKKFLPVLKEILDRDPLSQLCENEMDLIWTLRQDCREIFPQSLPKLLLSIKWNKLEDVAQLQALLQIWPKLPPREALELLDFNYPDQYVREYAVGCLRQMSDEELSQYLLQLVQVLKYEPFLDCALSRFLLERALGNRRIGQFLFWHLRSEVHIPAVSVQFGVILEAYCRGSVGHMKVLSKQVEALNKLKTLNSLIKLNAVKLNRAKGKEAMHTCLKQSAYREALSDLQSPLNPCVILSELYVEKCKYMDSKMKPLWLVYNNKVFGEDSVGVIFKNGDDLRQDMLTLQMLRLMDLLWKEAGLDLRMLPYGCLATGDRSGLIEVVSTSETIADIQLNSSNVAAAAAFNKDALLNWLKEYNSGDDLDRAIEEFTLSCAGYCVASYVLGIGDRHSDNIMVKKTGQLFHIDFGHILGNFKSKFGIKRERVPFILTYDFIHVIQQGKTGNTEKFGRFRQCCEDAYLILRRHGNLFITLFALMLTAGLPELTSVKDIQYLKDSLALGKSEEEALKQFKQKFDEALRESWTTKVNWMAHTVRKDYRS
UniProt P23443: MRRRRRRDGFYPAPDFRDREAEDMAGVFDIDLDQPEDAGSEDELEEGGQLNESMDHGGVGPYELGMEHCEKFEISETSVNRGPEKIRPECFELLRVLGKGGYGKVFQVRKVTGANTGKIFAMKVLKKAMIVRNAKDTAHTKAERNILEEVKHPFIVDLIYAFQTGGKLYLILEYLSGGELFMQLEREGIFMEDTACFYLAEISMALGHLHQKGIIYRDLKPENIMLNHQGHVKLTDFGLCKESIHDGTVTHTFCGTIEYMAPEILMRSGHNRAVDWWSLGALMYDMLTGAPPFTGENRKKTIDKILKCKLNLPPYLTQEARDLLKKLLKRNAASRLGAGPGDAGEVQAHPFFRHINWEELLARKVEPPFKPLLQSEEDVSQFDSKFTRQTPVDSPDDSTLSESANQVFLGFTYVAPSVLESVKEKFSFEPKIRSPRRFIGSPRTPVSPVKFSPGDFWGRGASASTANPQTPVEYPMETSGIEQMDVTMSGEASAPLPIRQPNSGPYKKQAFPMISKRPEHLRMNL

Like-named read-outs stand apart in the source and are kept apart here. No constants are given. Whether binding was seen depends on the method and setting. For some of these results: Binding seen in cells or lysates may run through a third protein. Some results given as binding are weak or reduced against the parent protein; the word gives no strength.

Experiment [1] has as its target Flag-tagged wild-type Claspin (UniProt Q9HAW4). Briefly: co-IP.
The target of experiment [2] is Claspin 897-1339aa polypeptide (#18), C-terminally Flag-tagged (UniProt Q9HAW4). Briefly: co-IP.
Experiment [3] has as its target Claspin 1-350aa+897-1209aa polypeptide (#19), C-terminally Flag-tagged (UniProt Q9HAW4). The experiment is described as follows: co-IP.
Experiment [4] addresses Claspin 897-1209aa polypeptide (#13), C-terminally Flag-tagged (UniProt Q9HAW4). The experiment is described as follows: co-IP.
Experiment [5] has as its target Claspin 1-350aa+897-1339aa polypeptide (#24), C-terminally Flag-tagged (UniProt Q9HAW4). The experiment is described as follows: co-IP.
Experiment [6] has as its target Claspin 897-1339aa polypeptide (#18), C-terminally Flag-tagged (UniProt Q9HAW4). Briefly: co-IP. This is another data set of the same source.
Experiment [7] addresses Claspin 1-350aa+897-1209aa polypeptide (#19), C-terminally Flag-tagged (UniProt Q9HAW4). The experiment is described as follows: co-IP. This is another data set of the same source.
Experiment [8] concerns the target Flag-tagged wild-type Claspin (UniProt Q9HAW4). Briefly: co-IP. The source holds these as a separate data set.
The target of experiment [9] is Claspin 897-1209aa polypeptide (#13), C-terminally Flag-tagged (UniProt Q9HAW4). Briefly: co-IP. This is another data set of the same source.
Experiment [10] deals with Claspin 1-350aa+897-1339aa polypeptide (#24), C-terminally Flag-tagged (UniProt Q9HAW4). The experiment is described as follows: co-IP. This is another data set of the same source.
For experiment [11], the target named is Claspin 897-1101aa polypeptide (#27), C-terminally Flag-tagged (UniProt Q9HAW4). The experiment is described as follows: co-IP.
Experiment [12] deals with His-tagged 897-1209aa Claspin polypeptide, wild type (UniProt Q9HAW4). Briefly: pull-down.
For experiment [13], the target named is Flag-tagged wild-type Claspin (UniProt Q9HAW4). Briefly: pull-down.
Experiment [14] has as its target Claspin 897-1209aa polypeptide (#13), C-terminally Flag-tagged (UniProt Q9HAW4). Briefly: pull-down.

“4EBP1 (endogenous, 293T) (from UniProt Q13541 1-118)”: the binding result in [1] is “no binding”.
In the case of “PI3 kinase p110β (endogenous, 293T) (from UniProt P42338 1-1070)”, the binding result in experiment [2], in experiment [3], in experiment [1], in experiment [4] and in [5] was “binds” each time.
For “S6 kinase (endogenous, 293T) (from UniProt P23443 1-525)”, the binding result in [1] is recorded as “no binding”.

B1: PDK1 (endogenous, 293T) (protein, UniProt O15530 1-556)
chain: MARTTSQLYDAVPIQSSVVLCSCPSPSMVRTQTESSTPPGIPGGSRQGPAMDGTAAEPRPGAGSLQHAQPPPQPRKKRPEDFKFGKILGEGSFSTVVLARELATSREYAIKILEKRHIIKENKVPYVTRERDVMSRLDHPFFVKLYFTFQDDEKLYFGLSYAKNGELLKYIRKIGSFDETCTRFYTAEIVSALEYLHGKGIIHRDLKPENILLNEDMHIQITDFGTAKVLSPESKQARANSFVGTAQYVSPELLTEKSACKSSDLWALGCIIYQLVAGLPPFRAGNEYLIFQKIIKLEYDFPEKFFPKARDLVEKLLVLDATKRLGCEEMEGYGPLKAHPFFESVTWENLHQQTPPKLTAYLPAMSEDDEDCYGNYDNLLSQFGCMQVSSSSSSHSLSASDTGLPQRSGSNIEQYIHDLDSNSFELDLQFSEDEKRLLLEKQAGGNPWHQFVENNLILKMGPVDKRKGLFARRRQLLLTEGPHLYYVDPVNKVLKGEIPWSQELRPEAKNFKTFFVHTPNRTYYLMDPSGNAHKWCRKIQEVWRQRYQSHPDAAVQ
modifications: phosphoserine at 241 (the form told to interact with Claspin in Fig. 5A)
For the molecule B1, the binding result in experiment [6], in experiment [7], in experiment [8], in experiment [9], in [10] and in experiment [11] was “binds” each time.

B2: purified PDK1 (Carna Bioscience) (enzyme, UniProt O15530 1-556)
chain: B1 chain
Regarding B2, the binding entry in experiment [12], in [13] and in [14] was “binds” each time.
